No constants are given. Whether binding was seen depends on the method and setting. In cells and extracts the contact can be indirect. Some binding calls cover weakened binding; strength is not graded here. Where a sequence is shown, tags or fusion partners need not be part of it.
Target: 3 × FLAG-tagged ZSWIM8 (zinc finger SWIM type containing 8), expressed in HEK293T cells (human) (UniProt A7E2V4)
Assay: co-IP; HEK293T cells co-transfected with 3 × FLAG-ZSWIM8 and non-tagged Cdon (FL or mutants), cultured 2 days; lysate (50 mM Tris-HCl pH 7.4, 150 mM NaCl, 1% Triton X-100) immunoprecipitated with anti-FLAG antibody and Protein A Sepharose at 4 °C, immunoblot with anti-Cdon-N

By UniProt entry, the sequences of proteins in these tests, tags left out. Where a name states a change or a piece, a line headed by the entry shows the natural chain unless it says otherwise. Chains listed by the source or under a name are the forms on record and can include a tag or linker.
3 × FLAG-tagged ZSWIM8 (zinc finger SWIM type containing 8), expressed in HEK293T cells (A7E2V4, form named): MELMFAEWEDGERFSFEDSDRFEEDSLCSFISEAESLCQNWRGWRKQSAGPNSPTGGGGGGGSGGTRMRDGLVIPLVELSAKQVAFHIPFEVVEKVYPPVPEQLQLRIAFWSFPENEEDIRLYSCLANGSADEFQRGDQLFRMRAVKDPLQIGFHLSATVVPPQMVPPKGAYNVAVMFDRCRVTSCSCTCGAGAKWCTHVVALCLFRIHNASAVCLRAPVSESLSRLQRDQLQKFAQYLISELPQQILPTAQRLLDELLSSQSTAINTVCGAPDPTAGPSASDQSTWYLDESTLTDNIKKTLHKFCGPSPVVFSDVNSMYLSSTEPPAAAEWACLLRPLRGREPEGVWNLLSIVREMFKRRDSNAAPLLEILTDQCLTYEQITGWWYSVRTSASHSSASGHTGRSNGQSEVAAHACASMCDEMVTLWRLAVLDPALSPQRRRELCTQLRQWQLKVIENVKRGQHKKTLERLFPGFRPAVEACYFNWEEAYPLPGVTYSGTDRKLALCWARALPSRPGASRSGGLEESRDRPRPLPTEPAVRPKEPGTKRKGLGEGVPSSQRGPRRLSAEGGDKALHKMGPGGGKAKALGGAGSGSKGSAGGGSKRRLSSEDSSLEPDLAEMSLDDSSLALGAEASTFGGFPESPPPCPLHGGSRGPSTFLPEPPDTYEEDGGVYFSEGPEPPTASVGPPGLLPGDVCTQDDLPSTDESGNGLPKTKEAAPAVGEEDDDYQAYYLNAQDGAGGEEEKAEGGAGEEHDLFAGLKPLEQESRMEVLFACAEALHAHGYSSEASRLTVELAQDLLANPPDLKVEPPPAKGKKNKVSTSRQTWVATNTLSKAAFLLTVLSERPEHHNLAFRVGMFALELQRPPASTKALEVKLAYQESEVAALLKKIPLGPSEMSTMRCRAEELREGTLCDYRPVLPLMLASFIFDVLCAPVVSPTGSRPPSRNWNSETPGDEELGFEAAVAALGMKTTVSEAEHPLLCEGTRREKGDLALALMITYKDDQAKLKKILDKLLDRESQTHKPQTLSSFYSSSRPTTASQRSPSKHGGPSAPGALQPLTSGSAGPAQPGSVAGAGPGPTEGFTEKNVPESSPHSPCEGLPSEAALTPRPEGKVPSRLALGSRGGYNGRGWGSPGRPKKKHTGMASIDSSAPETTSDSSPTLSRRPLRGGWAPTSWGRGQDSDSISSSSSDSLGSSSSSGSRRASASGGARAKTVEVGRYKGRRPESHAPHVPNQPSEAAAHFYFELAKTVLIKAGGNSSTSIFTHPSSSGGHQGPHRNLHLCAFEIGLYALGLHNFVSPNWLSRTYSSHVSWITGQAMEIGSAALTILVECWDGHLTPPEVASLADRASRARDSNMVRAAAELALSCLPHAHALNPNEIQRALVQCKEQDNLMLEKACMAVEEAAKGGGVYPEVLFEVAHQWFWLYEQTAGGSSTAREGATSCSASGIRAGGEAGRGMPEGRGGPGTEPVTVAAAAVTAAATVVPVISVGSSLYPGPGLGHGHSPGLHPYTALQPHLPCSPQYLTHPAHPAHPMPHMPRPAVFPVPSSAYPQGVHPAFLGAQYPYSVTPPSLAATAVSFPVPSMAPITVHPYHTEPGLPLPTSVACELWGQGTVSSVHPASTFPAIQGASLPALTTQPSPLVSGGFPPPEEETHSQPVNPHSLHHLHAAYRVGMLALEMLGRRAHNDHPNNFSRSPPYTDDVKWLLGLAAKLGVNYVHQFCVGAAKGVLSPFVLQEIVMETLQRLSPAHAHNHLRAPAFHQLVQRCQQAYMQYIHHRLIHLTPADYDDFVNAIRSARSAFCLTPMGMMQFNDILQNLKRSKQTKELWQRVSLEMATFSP

| binding | Binder |
| --- | --- |
| binds | full-length Cdon (cell adhesion molecule-related/downregulated by oncogenes), non-tagged (receptor, UniProt Q32MD9 25-1250) DLAPYFISEPLSAVQKLGRPVVLHCSAKPVTARISWLHNGKRLDRNTEQIKIHRGTLTILSLNPSLSGCYQCVANNSVGAVVSGPATVSAAALGDFDSSTMHVITAEEKNTGFIGCRVPESNPKAEVRYKIRGKWLKHSTGNYIILPSGNLQVLNVSSKDKGSYKCAAYNPVTSELKVEPTGRKLLVSRPSSNGFHILHPALSQALAVLPHSPVTLECVVSGVPASQVYWLKDGQDAVAGSNWRRLYSHLATASIDPADSGNYSCVVGNKSGDVKHVTYMVNVLEHASISKGLHDQKVSLGATVHFTCDVHGNPAPNRTWFHNAQPIHPSSRHLTEGNVLKITRVVMEDSGLYQCVADNGIGFMQSTGRLQIEQDSGWKPVIVTAPANIEVMDGDFVTLSCNATGVPVPVIHWYGRHGLITSHPSQVLRSKPRKSHLFRPGDLDLEPVYLIMSQAGSSSLSIQAVTLEHAGKYTCEATNKHGSTQSEAFLTVVPFETNTKAESVTPSEASQNDERDPQDGSESSLLNLFPVKVHPSGVELPAERNASVPDAPNILSPPQTHMPDTYNLVWRAGRDGGMPINAYFVKYRKLDDGSGAVGSWHTVRVPGSENELHLTELEPSSLYEVLMVARSAVGEGQPAMLTFRTSKEKMASSKNTQASFPPVGVPKRPVTAEASNSNFGVVLTDSSRHSGVPEAPDRPTISMASETSVYVTWIPRANGGSPITAFKVEYKRMRTSDWLVAAEDIPPSKLSVEVRSLEPGSIYKFRVIAINHYGESFRSSASRPYQVAGFPNRFSNRPITGPHIAYTEAVSDTQIMLKWTYVPSSNNNTPIQGFYIYYRPTDSDNDSDYKRDVVEGSKQWHTIGHLQPETSYDIKMQCFNEGGESEFSNVMICETKVKRVPGASDYPVKELSTPPSSSGNAGNVGPATSPARSSDMLYLIVGCVLGVMVLILMVFIALCLWKSRQQSTIQKYDPPGYLYQGSEINGQMVEYTTLSGAARINGSVHGGFLSNGCSHLHHKGPSGVNGTLSGNINGGLYSAHTNSLTRACVEFEHPHHLVNSGGVYTAVPQMDPLECINCRNCRNNNRCFTKTNSPLPVVPVVASYPQGGLEMKPLNAMKVPVCPASTVPDHGQLPDDCVKDSVAPIPTQHTCCQDNISDINSDSTEDTAEFSRGDSSGHSEAEDKVFSWNPLILSPVLEDCGEKTARSPPGPPLDGLSVVLQQAQET |
| binds | Cdon-ΔC, which lacks amino acids 1163–1250 (domain or fragment, UniProt Q32MD9 25-1162) DLAPYFISEPLSAVQKLGRPVVLHCSAKPVTARISWLHNGKRLDRNTEQIKIHRGTLTILSLNPSLSGCYQCVANNSVGAVVSGPATVSAAALGDFDSSTMHVITAEEKNTGFIGCRVPESNPKAEVRYKIRGKWLKHSTGNYIILPSGNLQVLNVSSKDKGSYKCAAYNPVTSELKVEPTGRKLLVSRPSSNGFHILHPALSQALAVLPHSPVTLECVVSGVPASQVYWLKDGQDAVAGSNWRRLYSHLATASIDPADSGNYSCVVGNKSGDVKHVTYMVNVLEHASISKGLHDQKVSLGATVHFTCDVHGNPAPNRTWFHNAQPIHPSSRHLTEGNVLKITRVVMEDSGLYQCVADNGIGFMQSTGRLQIEQDSGWKPVIVTAPANIEVMDGDFVTLSCNATGVPVPVIHWYGRHGLITSHPSQVLRSKPRKSHLFRPGDLDLEPVYLIMSQAGSSSLSIQAVTLEHAGKYTCEATNKHGSTQSEAFLTVVPFETNTKAESVTPSEASQNDERDPQDGSESSLLNLFPVKVHPSGVELPAERNASVPDAPNILSPPQTHMPDTYNLVWRAGRDGGMPINAYFVKYRKLDDGSGAVGSWHTVRVPGSENELHLTELEPSSLYEVLMVARSAVGEGQPAMLTFRTSKEKMASSKNTQASFPPVGVPKRPVTAEASNSNFGVVLTDSSRHSGVPEAPDRPTISMASETSVYVTWIPRANGGSPITAFKVEYKRMRTSDWLVAAEDIPPSKLSVEVRSLEPGSIYKFRVIAINHYGESFRSSASRPYQVAGFPNRFSNRPITGPHIAYTEAVSDTQIMLKWTYVPSSNNNTPIQGFYIYYRPTDSDNDSDYKRDVVEGSKQWHTIGHLQPETSYDIKMQCFNEGGESEFSNVMICETKVKRVPGASDYPVKELSTPPSSSGNAGNVGPATSPARSSDMLYLIVGCVLGVMVLILMVFIALCLWKSRQQSTIQKYDPPGYLYQGSEINGQMVEYTTLSGAARINGSVHGGFLSNGCSHLHHKGPSGVNGTLSGNINGGLYSAHTNSLTRACVEFEHPHHLVNSGGVYTAVPQMDPLECINCRNCRNNNRCFTKTNSPLPVVPVVASYPQGGLEMKPLNAMKVPVCPASTVPDHGQLPDDCV |

— article PMC8536758
